This assay concerns HeLa. Kind of assay: Antiproliferative activity against human HeLa cells after 48 hrs by MTT assay. The assay is classed as functional, cell-based. For orientation: Tetrazolium assays rely on reduction of a dye to a coloured formazan, in cell work by metabolically active cells.

Structures are written as SMILES.

For the compound `COc1cc2c(c(OC)c1OC)-c1ccc(OC)c(=O)cc1[C@@H](NC(C)=O)CC2` [COLCHICINE], the IC50 (in general, the concentration that inhibits the measured activity by half) worked out at 138 nM.

The record behind these values is ChEMBL document CHEMBL5143557, “Synthesis and biological evaluation of 3β-O-neoglycosides of caudatin and its analogues as potential anticancer agents” (Bioorg Med Chem, 2022).
